Experimental data as given in the supplement of paper PMC10849652.
This is one part of the list.

Protein sequences, listed by entry. Tags and fused reporters are not part of them. Lines headed by an entry give the natural chain unless they say otherwise; changes in a name come on top.
UniProt O95714: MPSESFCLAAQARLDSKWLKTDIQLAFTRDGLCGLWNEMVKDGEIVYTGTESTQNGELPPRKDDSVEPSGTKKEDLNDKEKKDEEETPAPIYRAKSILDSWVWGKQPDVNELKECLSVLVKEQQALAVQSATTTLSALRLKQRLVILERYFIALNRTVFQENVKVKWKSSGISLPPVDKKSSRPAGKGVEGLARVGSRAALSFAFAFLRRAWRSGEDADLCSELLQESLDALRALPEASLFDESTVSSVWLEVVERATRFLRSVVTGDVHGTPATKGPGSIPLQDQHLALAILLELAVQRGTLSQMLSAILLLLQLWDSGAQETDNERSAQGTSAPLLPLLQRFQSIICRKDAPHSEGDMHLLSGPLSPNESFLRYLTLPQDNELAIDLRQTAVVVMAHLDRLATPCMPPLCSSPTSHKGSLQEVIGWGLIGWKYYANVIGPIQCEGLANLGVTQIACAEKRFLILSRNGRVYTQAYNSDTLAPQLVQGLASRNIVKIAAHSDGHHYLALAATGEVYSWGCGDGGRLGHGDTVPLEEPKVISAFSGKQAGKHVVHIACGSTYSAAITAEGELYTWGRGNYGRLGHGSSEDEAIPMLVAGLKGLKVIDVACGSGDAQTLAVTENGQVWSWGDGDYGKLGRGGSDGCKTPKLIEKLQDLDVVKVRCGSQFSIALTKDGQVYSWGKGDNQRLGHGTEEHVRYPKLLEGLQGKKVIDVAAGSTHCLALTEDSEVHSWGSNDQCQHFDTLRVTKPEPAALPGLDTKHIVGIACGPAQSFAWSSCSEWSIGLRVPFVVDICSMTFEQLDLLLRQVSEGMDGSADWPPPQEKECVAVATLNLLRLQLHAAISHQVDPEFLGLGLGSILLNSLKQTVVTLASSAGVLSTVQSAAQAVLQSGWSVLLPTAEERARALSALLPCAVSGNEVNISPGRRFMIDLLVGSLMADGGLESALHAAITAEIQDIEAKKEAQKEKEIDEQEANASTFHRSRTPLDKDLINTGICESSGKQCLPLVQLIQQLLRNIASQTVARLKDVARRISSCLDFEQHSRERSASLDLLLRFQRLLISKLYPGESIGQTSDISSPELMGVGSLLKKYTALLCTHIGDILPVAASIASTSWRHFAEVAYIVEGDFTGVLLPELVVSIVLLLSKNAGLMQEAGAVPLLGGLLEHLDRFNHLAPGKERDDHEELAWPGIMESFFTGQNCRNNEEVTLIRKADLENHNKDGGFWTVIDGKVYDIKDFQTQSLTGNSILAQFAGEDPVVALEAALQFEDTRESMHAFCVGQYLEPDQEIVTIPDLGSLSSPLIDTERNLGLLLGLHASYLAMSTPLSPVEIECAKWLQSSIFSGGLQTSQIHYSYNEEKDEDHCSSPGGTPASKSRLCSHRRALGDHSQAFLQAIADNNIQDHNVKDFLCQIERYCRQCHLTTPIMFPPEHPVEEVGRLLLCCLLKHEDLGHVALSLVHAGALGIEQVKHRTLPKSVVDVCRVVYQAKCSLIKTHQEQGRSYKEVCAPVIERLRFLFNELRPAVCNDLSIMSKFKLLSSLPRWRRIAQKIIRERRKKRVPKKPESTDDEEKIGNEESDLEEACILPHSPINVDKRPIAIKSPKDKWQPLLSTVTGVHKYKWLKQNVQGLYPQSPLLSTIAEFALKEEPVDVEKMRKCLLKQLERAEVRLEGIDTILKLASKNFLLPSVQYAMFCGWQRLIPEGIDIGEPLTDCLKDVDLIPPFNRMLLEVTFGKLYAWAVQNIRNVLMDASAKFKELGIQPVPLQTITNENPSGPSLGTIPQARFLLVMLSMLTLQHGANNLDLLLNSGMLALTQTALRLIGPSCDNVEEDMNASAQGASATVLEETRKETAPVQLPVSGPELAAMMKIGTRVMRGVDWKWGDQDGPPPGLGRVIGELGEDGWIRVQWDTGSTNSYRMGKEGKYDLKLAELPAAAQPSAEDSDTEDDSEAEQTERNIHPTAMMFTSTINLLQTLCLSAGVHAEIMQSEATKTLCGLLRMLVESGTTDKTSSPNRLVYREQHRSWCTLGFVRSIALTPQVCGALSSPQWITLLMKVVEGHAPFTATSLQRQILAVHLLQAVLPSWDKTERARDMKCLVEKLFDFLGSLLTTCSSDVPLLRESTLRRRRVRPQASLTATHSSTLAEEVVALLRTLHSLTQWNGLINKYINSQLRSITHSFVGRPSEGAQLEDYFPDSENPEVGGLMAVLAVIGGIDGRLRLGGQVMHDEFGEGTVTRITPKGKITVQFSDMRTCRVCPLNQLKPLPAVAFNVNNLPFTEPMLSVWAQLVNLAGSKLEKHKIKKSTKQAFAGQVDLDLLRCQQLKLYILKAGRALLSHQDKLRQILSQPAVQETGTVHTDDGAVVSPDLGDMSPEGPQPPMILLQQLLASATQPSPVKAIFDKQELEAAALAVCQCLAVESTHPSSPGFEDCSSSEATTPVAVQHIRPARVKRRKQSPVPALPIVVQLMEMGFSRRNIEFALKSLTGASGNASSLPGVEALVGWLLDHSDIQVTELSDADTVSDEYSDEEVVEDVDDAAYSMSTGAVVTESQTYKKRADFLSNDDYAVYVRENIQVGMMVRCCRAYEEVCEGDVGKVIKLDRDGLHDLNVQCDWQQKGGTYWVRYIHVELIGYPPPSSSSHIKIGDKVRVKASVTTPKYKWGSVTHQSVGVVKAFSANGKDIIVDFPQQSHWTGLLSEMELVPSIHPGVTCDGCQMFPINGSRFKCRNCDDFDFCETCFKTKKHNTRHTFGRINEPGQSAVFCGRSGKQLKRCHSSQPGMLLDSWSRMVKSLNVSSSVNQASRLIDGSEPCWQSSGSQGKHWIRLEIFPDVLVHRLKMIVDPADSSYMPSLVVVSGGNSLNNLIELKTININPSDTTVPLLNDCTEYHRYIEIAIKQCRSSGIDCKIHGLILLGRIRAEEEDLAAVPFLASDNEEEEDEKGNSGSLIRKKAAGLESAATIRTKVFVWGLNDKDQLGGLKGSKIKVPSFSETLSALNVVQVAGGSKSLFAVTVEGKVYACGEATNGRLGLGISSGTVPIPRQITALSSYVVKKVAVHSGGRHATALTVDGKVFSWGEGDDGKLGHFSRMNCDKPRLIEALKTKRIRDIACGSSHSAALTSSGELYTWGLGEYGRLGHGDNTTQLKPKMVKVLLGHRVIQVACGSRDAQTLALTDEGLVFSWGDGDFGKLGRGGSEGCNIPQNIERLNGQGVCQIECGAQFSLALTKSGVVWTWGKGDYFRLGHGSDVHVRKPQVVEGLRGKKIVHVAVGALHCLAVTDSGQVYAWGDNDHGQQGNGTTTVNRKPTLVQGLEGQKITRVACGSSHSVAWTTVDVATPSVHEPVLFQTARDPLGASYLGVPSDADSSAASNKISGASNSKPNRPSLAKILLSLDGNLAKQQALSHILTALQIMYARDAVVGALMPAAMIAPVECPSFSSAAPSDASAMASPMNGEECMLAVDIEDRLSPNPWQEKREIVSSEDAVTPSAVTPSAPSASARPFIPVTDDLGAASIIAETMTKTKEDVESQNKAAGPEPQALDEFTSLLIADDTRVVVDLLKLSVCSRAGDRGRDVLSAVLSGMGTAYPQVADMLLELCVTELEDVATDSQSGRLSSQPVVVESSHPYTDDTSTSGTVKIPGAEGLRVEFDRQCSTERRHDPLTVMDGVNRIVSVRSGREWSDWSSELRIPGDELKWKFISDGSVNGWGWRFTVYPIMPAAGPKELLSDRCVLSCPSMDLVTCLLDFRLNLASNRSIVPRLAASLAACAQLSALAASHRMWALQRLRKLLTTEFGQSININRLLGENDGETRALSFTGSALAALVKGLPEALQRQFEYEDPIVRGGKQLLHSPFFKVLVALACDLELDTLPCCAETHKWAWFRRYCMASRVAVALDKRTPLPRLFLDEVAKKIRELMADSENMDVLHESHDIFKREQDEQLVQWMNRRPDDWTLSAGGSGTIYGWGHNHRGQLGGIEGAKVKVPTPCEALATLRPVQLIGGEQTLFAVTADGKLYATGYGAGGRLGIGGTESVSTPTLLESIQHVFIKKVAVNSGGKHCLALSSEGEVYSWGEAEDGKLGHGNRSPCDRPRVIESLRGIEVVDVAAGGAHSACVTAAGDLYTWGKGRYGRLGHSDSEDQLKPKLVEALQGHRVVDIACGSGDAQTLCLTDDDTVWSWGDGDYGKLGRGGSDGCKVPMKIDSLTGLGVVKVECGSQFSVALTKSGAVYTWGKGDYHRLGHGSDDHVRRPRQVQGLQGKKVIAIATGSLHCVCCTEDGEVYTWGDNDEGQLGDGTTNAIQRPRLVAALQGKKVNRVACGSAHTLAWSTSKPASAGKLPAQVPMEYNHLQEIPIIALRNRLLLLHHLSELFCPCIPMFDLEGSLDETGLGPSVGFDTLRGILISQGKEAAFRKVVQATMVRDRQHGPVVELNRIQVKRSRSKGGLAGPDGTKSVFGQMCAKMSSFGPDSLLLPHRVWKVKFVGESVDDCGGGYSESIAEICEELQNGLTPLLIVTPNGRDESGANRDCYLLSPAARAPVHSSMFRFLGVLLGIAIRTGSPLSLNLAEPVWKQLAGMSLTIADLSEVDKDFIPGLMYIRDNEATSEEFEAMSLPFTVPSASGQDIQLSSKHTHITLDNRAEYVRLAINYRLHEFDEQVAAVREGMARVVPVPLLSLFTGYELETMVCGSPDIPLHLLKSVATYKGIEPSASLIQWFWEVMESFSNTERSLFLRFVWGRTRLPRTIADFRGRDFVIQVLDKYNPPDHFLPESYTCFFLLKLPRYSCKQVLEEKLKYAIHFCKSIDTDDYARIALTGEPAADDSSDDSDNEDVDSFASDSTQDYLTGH
UniProt Q96CS2: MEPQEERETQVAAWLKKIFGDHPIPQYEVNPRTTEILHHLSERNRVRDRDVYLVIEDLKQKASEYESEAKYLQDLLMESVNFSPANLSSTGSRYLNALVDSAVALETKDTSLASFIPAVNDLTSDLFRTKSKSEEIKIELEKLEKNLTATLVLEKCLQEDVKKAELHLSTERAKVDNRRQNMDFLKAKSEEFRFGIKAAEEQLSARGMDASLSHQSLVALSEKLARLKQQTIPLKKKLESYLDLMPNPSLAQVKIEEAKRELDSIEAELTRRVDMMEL
UniProt P52657, whole entry, looked up: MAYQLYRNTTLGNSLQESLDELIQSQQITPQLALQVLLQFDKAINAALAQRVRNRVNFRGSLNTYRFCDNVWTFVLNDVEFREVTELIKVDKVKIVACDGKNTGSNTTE
UniProt P14317: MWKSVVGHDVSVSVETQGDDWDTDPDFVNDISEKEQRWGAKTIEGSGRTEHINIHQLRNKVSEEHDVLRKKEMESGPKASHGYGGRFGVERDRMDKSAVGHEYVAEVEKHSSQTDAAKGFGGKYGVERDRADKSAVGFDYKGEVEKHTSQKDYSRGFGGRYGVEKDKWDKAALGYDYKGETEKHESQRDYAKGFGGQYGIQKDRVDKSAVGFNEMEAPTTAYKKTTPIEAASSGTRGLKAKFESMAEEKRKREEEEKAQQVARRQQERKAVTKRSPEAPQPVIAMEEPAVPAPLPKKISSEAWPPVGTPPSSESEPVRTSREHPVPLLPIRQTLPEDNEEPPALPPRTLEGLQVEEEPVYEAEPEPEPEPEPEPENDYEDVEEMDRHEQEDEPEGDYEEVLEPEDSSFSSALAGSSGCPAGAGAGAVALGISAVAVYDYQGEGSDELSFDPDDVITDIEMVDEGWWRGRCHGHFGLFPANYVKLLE
UniProt P51858: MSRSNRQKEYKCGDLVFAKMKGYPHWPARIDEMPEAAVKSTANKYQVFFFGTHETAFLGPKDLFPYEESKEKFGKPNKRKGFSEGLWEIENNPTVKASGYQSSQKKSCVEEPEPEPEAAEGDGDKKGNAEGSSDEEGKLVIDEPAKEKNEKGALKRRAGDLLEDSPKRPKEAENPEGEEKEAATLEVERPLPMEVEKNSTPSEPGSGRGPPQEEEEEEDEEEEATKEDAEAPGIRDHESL
UniProt P55084: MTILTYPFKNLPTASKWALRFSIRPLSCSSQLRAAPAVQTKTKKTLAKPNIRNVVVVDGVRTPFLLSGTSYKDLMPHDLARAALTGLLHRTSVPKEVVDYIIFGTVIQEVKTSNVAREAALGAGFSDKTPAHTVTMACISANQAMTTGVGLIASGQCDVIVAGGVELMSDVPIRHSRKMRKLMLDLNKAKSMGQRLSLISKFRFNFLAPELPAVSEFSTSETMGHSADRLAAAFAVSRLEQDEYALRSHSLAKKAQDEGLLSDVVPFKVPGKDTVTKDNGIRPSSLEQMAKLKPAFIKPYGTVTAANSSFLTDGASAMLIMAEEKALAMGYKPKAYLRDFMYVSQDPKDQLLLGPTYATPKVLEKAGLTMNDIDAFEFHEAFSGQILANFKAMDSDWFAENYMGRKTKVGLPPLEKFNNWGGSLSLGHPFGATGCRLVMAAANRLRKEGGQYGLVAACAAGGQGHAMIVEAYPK

Assays:
Assay in all cases: log2 fold change, soluble protein after heating vs DMSO (PISA); higher = thermal stabilisation; K562 cells, 10 uM, 30 min; active = over 0.2 and 3.5 SD of the protein, either way, in both replicates (recomputed)
[1] = compound: CC[C@@H]1C(=O)N(C)c2cnc(Nc3ccc(C(=O)NC4CCN(C)CC4)cc3OC)nc2N1C1CCCC1
In short: (§1)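 For each measurement, 10 μM compound was applied for 30 min to K562 cells at 2×10^6 cells/mL. Aliquots were heated for 3 min across 48°C-58°C, pooled, and extracted in PBS with 0.5% NP-40 at 4°C; the supernatant after 21,000xg for 90 min was soluble protein. This was quantified by TMTpro 16plex LC-MS/MS with channel sums equalised, and thermal stability was reported relative to control samples from duplicates, on a log2 fold-change scale.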

volasertib = compound: CC[C@@H]1C(=O)N(C)c2cnc(Nc3ccc(C(=O)N[C@H]4CC[C@H](N5CCN(CC6CC6)CC5)CC4)cc3OC)nc2N1C(C)C [volasertib]
In short: as §1

[2] = compound: CC[C@H](C)N1C=C(C2=C(C=C(C=C21)C3=CN=C(C=C3)N4CCNCC4)C(=O)NCC5=C(C=C(NC5=O)C)C)C
In short: as §1

epoxomicin = compound: CC[C@H](C)[C@@H](C(=O)N[C@@H]([C@@H](C)O)C(=O)N[C@@H](CC(C)C)C(=O)[C@]1(CO1)C)NC(=O)[C@H]([C@@H](C)CC)N(C)C(=O)C [epoxomicin]
In short: as §1

[3] = compound: CCn1cc(-c2ccnc3[nH]c(-c4cccc(CN(C)C)c4)cc23)c(-c2ccc(NC(=O)N(C)C)cc2)n1
In short: as §1

[4] = compound: CN(C)CC(=O)Nc1ccc2[nH]c(=O)c3ccccc3c2c1
In short: as §1

rosiglitazone = compound: CN(CCOC1=CC=C(C=C1)C[C@H]2C(=O)NC(=O)S2)C3=CC=CC=N3 (racemic) [rosiglitazone]
In short: as §1

[5] = compound: CN1C2=C(C3=C1C(=O)N(N=C3)CC4=CC(=CC=C4)N)SC(=C2)S(=O)C
In short: as §1

[6] = compound: CN1CCC(CNc2ccc3ncc(-c4cccc(OC(F)(F)F)c4)n3n2)CC1
In short: as §1

saracatinib = compound: CN1CCN(CCOc2cc(OC3CCOCC3)c3c(Nc4c(Cl)ccc5c4OCO5)ncnc3c2)CC1 [saracatinib]
In short: as §1

sotrastaurin = compound: CN1CCN(c2nc(C3=C(c4c[nH]c5ccccc45)C(=O)NC3=O)c3ccccc3n2)CC1 [sotrastaurin]
In short: as §1

alvocidib = compound: CN1CC[C@H](c2c(O)cc(O)c3c(=O)cc(-c4ccccc4Cl)oc23)[C@H](O)C1 [alvocidib]
In short: as §1

Tubastatin A = compound: CN1CCc2c(c3ccccc3n2Cc2ccc(C(=O)NO)cc2)C1 [Tubastatin A]
In short: as §1

defactinib = compound: CNC(=O)c1ccc(Nc2ncc(C(F)(F)F)c(NCc3nccnc3N(C)S(C)(=O)=O)n2)cc1 [defactinib]
In short: as §1

rucaparib = compound: CNCc1ccc(-c2[nH]c3cc(F)cc4c3c2CCNC4=O)cc1 [rucaparib]
In short: as §1

[7] = compound: CNc1nc(-c2ccc3c(N)n[nH]c3c2)cc(N2C[C@@H](C(=O)NC3CCCCC3)CC[C@H]2C)n1
In short: as §1

encorafenib = compound: COC(=O)N[C@@H](C)CNc1nccc(-c2cn(C(C)C)nc2-c2cc(Cl)cc(NS(C)(=O)=O)c2F)n1 [encorafenib]
In short: as §1

[8] = compound: COC(=O)[C@H](CCSC)NC(=O)C1=C(C=C(C=C1)NC[C@H](CS)N)C2=CC=CC=C2
In short: as §1

[9] = compound: CCn1c(C(=O)N(C2CC2)C2CC2)cc2c3c(ncn3C)c(Nc3cc(C)n(C)n3)nc21
In short: as §1

[10] = compound: CNC(=O)C1=CC=CC=C1NC2=NC(=NC=C2Cl)NC3=C(C=C(C=C3)N4CCOCC4)OC
In short: as §1

Target | log2 fold change [1] | log2 fold change (volasertib) | log2 fold change [2] | log2 fold change (epoxomicin) | log2 fold change [3] | log2 fold change [4] | log2 fold change (rosiglitazone) | log2 fold change [5] | log2 fold change [6] | log2 fold change (saracatinib) | log2 fold change (sotrastaurin) | log2 fold change (alvocidib) | log2 fold change (Tubastatin A) | log2 fold change (defactinib) | log2 fold change (rucaparib) | log2 fold change [7] | log2 fold change (encorafenib) | log2 fold change [8] | log2 fold change [9] | log2 fold change [10]
HERC2 (UniProt O95714) | inactive: 0.141 | inactive: -0.201 | inactive: -0.016 | inactive: -0.132 | inactive: 0.292 | inactive: -0.051 | inactive: 0.078 | inactive: 0.429 | inactive: 0.349 | inactive: -0.088 | inactive: -0.018 | inactive: 0.21 | inactive: 0.036 | inactive: 0.274 | inactive: 0.18 | inactive: 0.189 | inactive: 0.053 | inactive: 0.039 |  | 
HAUS1 (UniProt Q96CS2) | inactive: 0.002 | inactive: -0.102 | inactive: -0.036 | inactive: -0.039 | inactive: 0.019 | inactive: 0.005 | inactive: 0.089 | inactive: 0.183 | inactive: 0.048 | inactive: 0 | inactive: -0.017 | inactive: -0.011 | inactive: 0.166 | inactive: 0.112 | inactive: 0.07 | inactive: 0.038 | inactive: -0.1 | inactive: 0.098 | inactive: -0.016 | inactive: -0.072
HDHD3 (UniProt Q9BSH5) | inactive: -0.009 | inactive: 0.037 | inactive: -0.013 | inactive: -0.001 | inactive: -0.019 | inactive: 0.06 | inactive: 0.011 | inactive: -0.002 | inactive: 0.041 | inactive: 0.013 | inactive: 0.048 | inactive: 0.018 | inactive: 0.062 | inactive: -0.018 | inactive: -0.003 | inactive: -0.105 | inactive: -0.03 | inactive: 0.008 | inactive: 0.01 | inactive: -0.024
GTF2A2 (UniProt P52657) | inactive: 0.053 | inactive: 0.097 | inactive: -0.07 | inactive: 0.036 | inactive: 0.025 | inactive: -0.03 |  | inactive: -0.046 | inactive: -0.031 | inactive: 0.034 | inactive: 0.018 |  | inactive: 0.026 | inactive: -0.025 | inactive: -0.061 | inactive: -0.025 | inactive: -0.022 | inactive: 0.018 |  | inactive: -0.031
HCLS1 (UniProt P14317) | inactive: -0.034 | inactive: -0.003 | inactive: -0.022 | inactive: -0.02 | inactive: 0.026 | inactive: -0.048 | inactive: -0.006 | inactive: -0.036 | inactive: -0.055 | inactive: 0.036 | inactive: 0.067 | inactive: 0.006 | inactive: 0.01 | inactive: -0.048 | inactive: -0.064 | inactive: -0.038 | inactive: -0.01 | inactive: 0.029 | inactive: 0.04 | inactive: -0.027
HCFC1 isoform 4 (UniProt P51610) | inactive: 0.05 | inactive: 0.129 | inactive: -0.007 | inactive: -0.013 | inactive: -0.013 | inactive: -0.007 | inactive: 0.025 | inactive: -0.066 | inactive: 0.098 | inactive: -0.029 | inactive: 0.014 | inactive: -0.02 | inactive: 0.006 | inactive: 0.014 | inactive: 0.025 | inactive: -0.016 | inactive: -0.007 | inactive: -0.039 | inactive: -0.039 | inactive: 0.006
HDGF (UniProt P51858) | inactive: -0.027 | inactive: -0.042 | inactive: 0.016 | inactive: 0.009 | inactive: -0.02 | inactive: -0.01 | inactive: 0.009 | inactive: -0.056 | inactive: -0.125 | inactive: 0.023 | inactive: 0.029 | inactive: -0.032 | inactive: 0.012 | inactive: -0.039 | inactive: -0.073 | inactive: -0.029 | inactive: 0 | inactive: 0.034 | inactive: 0.002 | inactive: -0.023
HADHB (UniProt P55084) | inactive: 0.082 | inactive: 0.462 | inactive: 0.123 | inactive: 0.05 | inactive: -0.223 | inactive: 0.015 |  | inactive: -0.058 | inactive: -0.223 | inactive: -0.111 | inactive: 0.011 |  | inactive: 0.027 | inactive: -0.18 | inactive: 0.131 | active: 0.62 | inactive: 0.001 | inactive: -0.223 |  | inactive: 0.064
